Fewer than 10 of roughly 6,900 compounds were called active. Calls follow the shape of the dose curve; as a rule, active = well fitted curve in the direction sought with a large enough effect; inconclusive = small, poorly fitted or top-dose-only effect, or another doubt; inactive = no such curve, though single readings can be large or run the other way. Some of the results follow.
Target: Metallo-beta-lactamase type 2 (Klebsiella pneumoniae) (UniProt C7C422)
Assay: qHTS to identify inhibitors of the New Delhi Metallo-beta-lactamase (NDM): primary screen against the NCATS Gemini Collection; also: % of control where 0% means no effect
Conditions: NDM-1 enzyme, meropenem hydrolysis, absorbance 300 nm; at 38.4 µM (top of the series) unless noted
How it was run: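 Meropenem hydrolysis (50 uM final) by 2 nM NDM-1 read as 300 nm absorbance after 30 min, following >30 min compound–enzyme preincubation in HEPES pH 7.0 with 1 uM ZnSO4 and 0.01% Tween20.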

Sequences of proteins named here, by UniProt entry; tags and fusion partners are left off. A change or cut given only in a name is not applied to a line headed by its entry.
UniProt C7C422: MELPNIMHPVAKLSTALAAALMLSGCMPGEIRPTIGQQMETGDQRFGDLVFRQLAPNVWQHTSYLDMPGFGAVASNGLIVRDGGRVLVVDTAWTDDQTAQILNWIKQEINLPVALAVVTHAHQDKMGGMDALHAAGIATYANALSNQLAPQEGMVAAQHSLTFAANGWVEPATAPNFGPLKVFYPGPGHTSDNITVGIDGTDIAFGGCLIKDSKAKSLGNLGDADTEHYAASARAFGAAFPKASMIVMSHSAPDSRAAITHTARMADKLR

SMILES	activity % (negative = inhibition)
Cn1ccc(C(=O)NCc2nnc3n2C(C(=O)N2CCN(c4ncccn4)CC2)CC3)n1 (stereo not drawn)	inactive: 2.41%
O=C(c1csc2nc(-c3ccc(F)cc3)cn12)N1C[C@H]2CC[C@@H](C1)N2	inactive: 16.7%
COc1ccc2ccc(OCc3nc(C(=O)N4CCCNC(=O)C4)co3)cc2c1	inactive: 21.1%
CCc1ccccc1CN1CCCC2(Cc3ccccc3CNC2=O)C1 (stereo not drawn)	inactive: 0.764%
COCCCn1c(=O)[nH]c2cccnc21	inactive: -1.3% [at 77.1 µM]
CNC(=O)CCn1ncc2cc(OCc3ccccc3-c3ccc(F)c(Cl)c3)ccc21	inactive: 0.373% [at 57.5 µM]
CNc1cc(C)nc(N2CC[C@H](N3CCOCC3)[C@H](CCC(=O)O)C2)n1	inactive: -4.91%
O=C(NC1CCCC1)C1c2ccccc2C(=O)N(C2CCCC2)C12CCCCC2 (stereo not drawn)	inactive: -0.894%
COCCN1CCC(CN(Cc2ccncc2)C(=O)C2CC23CCCC3)CC1 (stereo not drawn)	inactive: 0.425%
CC(=O)NC1(C)CCN(Cc2ccc(-c3ccc([S+](C)(=O)[O-])cc3)cc2)C1 (stereo not drawn)	inactive: 1.76% [at 57.5 µM]
c1ccc(CC2=NOC3(CCN(Cc4c[nH]c5ccccc45)CC3)C2)cc1	inactive: 27.1%
COCc1ccc2c(c1)c(OC(C)(C)C(=O)N1CCN(C)CC1)nn2CCC(C)C	inactive: 10.7% [at 57.5 µM]
O=C(CCc1conc1-c1ccccc1F)NCc1ccc(Cl)cc1	inactive: 1.02%
C=CCc1cc(-c2c(-c3ccccc3)ncn2CCOCCO)cc(OC)c1O	inactive: -0.34%
CC(O)CN1CC2(CCC1=O)CCN(Cc1cncn1C)CC2 (stereo not drawn)	inactive: 38.1%
Cc1ccccc1CNC(=O)c1ccc2c(c1)C(O)CCCCCN2C (stereo not drawn)	inactive: 1.89%
CCOc1ccc(CC(=O)N2CCC[C@H]2c2nc(-c3ccc(OC)cc3)no2)cc1	inactive: -1.43%
Cc1ccc(CN2CC(Cn3c(C)cnc3-c3ccncc3)C2)o1	inactive: 9.48%
O=C(CC1CCCC1)N1CCC(Nc2cccnc2)C1 (stereo not drawn)	inactive: 79.7%
COc1cccc(-c2nnnn2[C@H]2CO[C@H]3[C@@H]2OC[C@@H]3NC(=O)c2ccccc2)c1	inactive: -9.9% [at 57.5 µM]
NC(=O)[C@@H](Cc1c[nH]c2ccccc12)NC(=O)C1=C[C@@H](NS(=O)(=O)c2cccs2)[C@@H](O)[C@H](O)C1	inactive: 1.76%
Cc1ccc2nc(NC(=O)Cn3nc4c(cc3=O)CCCCC4)sc2c1	inactive: 13.2%
COc1cccc(-c2nc3cc(SC)ccc3cc2CN(C)Cc2ccno2)c1	inactive: 25.6%
Cc1noc([C@H]2CCN(C(=O)NCc3ccccc3)C[C@H]2NC(=O)C2CCOCC2)n1	inactive: 8.15%
Cc1nc(CN2CCCC(c3[nH]ncc3Cc3ccccc3)C2)co1 (stereo not drawn)	inactive: -11.8%
O=C(COc1cccc(-c2nnc3n2CCCC3)c1)NCc1ccccc1	inactive: -4.92%
Cn1cc(CN2C[C@@H]3C[C@H](C2)c2ccc(NC(=O)COc4ccccc4)c(=O)n2C3)c2ccccc21	inactive: 5.52%

SMILES	activity % (negative = inhibition)
Cc1noc(C)c1[S+](=O)([O-])N1CCn2ncc(C(=O)NCc3ccc(Cl)nc3)c2C1	inactive: 7.92%
CC(C)(C)c1cc(CC2(NCc3ccc(Cl)cc3)COC2)no1	inactive: 15.3% [at 57.5 µM]
Cc1ccc(CN2CCCCC23Cc2ccccc2CNC3=O)cc1C (stereo not drawn)	inactive: 1.96%
CN(C)c1ccc(C(=O)NC[C@H]2O[C@@H](CO)[C@@H](O)[C@H]2N(C)CCc2ccccc2)cc1	inactive: 8.31%
CC(=O)N1CCCC(c2[nH]ccc2C(=O)NCc2cc(C)nn2C)C1 (stereo not drawn)	inactive: 1.91%
O=C(NCc1ccccn1)C1CCN(Cc2cc3n(n2)CCCNC3)CC1	inactive: 4.62%
CCn1cnnc1CC1CCN(C(=O)c2[nH]nc3c2COc2ccccc2-3)CC1	inactive: 8.89%
CC(=O)NC1(C)CCN(Cc2ccccc2-c2ccccc2Oc2ccccc2)C1 (stereo not drawn)	inactive: 16.6% [at 57.5 µM]
CC(C)Nc1ncc(C(=O)NC2CCCN(CCc3ccccc3)C2)cn1 (stereo not drawn)	inactive: 3.34%
CCn1cnnc1CC1CCN(C(=O)C2CCN(Cc3nc(-c4cccc(C)c4)oc3C)CC2)CC1	inactive: 40.7%
Cc1cc(C(=O)N2CCC(Cc3nc(-c4ccccc4)n[nH]3)C2)n(C)n1 (stereo not drawn)	inactive: -0.155%
CC(C)CNC(=O)N(C)C1CCc2nn(C)c(=O)n2CC1 (stereo not drawn)	inactive: 9.39%
CN1c2cccnc2CN(C2CCC(CO)CC2)CC[C@H]1CO (stereo partly drawn)	inactive: -1.27% [at 57.5 µM]
COc1ccc(-c2noc(-c3cccn3CC(=O)Nc3cccc(Cl)c3C)n2)cc1F	inactive: -3.31%
COc1cccc(Nc2cc3c(cn2)CN(Cc2cccnc2)CCN3)c1	inactive: 13.5% [at 57.5 µM]
CCOC(=O)c1cn(C2CN(S(=O)(=O)Cc3ccccc3)C2)nn1	inactive: 5.99%
CCN1c2cc(C(=O)NCCc3ccccc3)ccc2C(=O)N2CCCCCC21 (stereo not drawn)	inactive: 0.863%
O=C(c1cccc(OC2CN(C3CCSCC3)C2)c1)N1CCCC1	inactive: -6.71%
Cc1nn(CC(=O)NCCCN2CCCCC2)c(=O)c2nc(-c3ccccc3)sc12	inactive: 4.21%
O=[S+]([O-])(c1cccs1)N1CCCN(c2nc3ncccc3o2)CC1	inactive: 24.5%
COCCNC(=O)C(NC(=O)c1cccc(OC)c1)C1CCN(C(=O)COC)CC1 (stereo not drawn)	inactive: -0.268%
CCCCCC(=O)N1C[C@H](C(=O)NC)[C@H]2c3ccccc3N(CC3CC3)C(=O)[C@]21C	inactive: -0.634% [at 16.1 µM]
COc1cccc(Nc2ccnc(-c3nnc(C)n3C3CCCCC3)c2)c1	inactive: 14.6% [at 57.5 µM]
COc1ccc2[nH]c(=O)c(CCC(=O)NC(C)c3cn(C)nc3C)cc2c1 (stereo not drawn)	inactive: 7.95%
Cn1cnc(S(=O)(=O)N[C@H]2CCN(C(=O)c3ccco3)[C@H](C(=O)N[C@@H](Cc3cccs3)C(N)=O)C2)c1	inactive: 4.77%
Cc1cc(CN2CCc3nc(C(C)C)nc(-c4ccc(Cl)cc4)c3CC2)no1	inactive: -2.53%

Filtered by structure, the compounds so far containing a furan ring, fused or not (2)
SMILES	activity % (negative = inhibition)
Cc1ccc(CN2CC(Cn3c(C)cnc3-c3ccncc3)C2)o1	inactive: 9.48%
Cn1cnc(S(=O)(=O)N[C@H]2CCN(C(=O)c3ccco3)[C@H](C(=O)N[C@@H](Cc3cccs3)C(N)=O)C2)c1	inactive: 4.77%

Sorted by count of non-hydrogen atoms (smallest number first): three of the compounds above.
SMILES	activity % (negative = inhibition)
CC(=O)NC1(C)CCN(Cc2ccc(-c3ccc([S+](C)(=O)[O-])cc3)cc2)C1 (stereo not drawn)	inactive: 1.76% [at 57.5 µM]
Cn1ccc(C(=O)NCc2nnc3n2C(C(=O)N2CCN(c4ncccn4)CC2)CC3)n1 (stereo not drawn)	inactive: 2.41%
Cn1cc(CN2C[C@@H]3C[C@H](C2)c2ccc(NC(=O)COc4ccccc4)c(=O)n2C3)c2ccccc21	inactive: 5.52%

— PubChem BioAssay AID1794845 (National Center for Advancing Translational Sciences (NCATS), 2023)
